Experimental data: PubChem BioAssay AID2517 (National Center for Advancing Translational Sciences (NCATS), 2010)
About 1,200 (0.34%) of roughly 350,000 compounds were called active. Inconclusive results, whose numbers are uncertain, are shown with a selection of clear calls. The call rests on the fitted dose curve; in most records, active means well fitted inhibition curve with a large enough effect; inconclusive means small, poorly fitted or top-dose-only effect; inactive means no such curve, though single readings can be large or run the other way. Potencies beside an inconclusive call are fits to weak or partial responses and may not hold up.
Further: nearly all actives have a fitted effect of over 55% in size.
Potency means the concentration at half of the fitted maximal effect.
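Wherever activity change, negative = inhibition is given: plate controls were vehicle for no effect and reference inhibitor for full effect.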

Amino acid sequences for entries named in this document (tags omitted).
UniProt P27695, whole entry, looked up: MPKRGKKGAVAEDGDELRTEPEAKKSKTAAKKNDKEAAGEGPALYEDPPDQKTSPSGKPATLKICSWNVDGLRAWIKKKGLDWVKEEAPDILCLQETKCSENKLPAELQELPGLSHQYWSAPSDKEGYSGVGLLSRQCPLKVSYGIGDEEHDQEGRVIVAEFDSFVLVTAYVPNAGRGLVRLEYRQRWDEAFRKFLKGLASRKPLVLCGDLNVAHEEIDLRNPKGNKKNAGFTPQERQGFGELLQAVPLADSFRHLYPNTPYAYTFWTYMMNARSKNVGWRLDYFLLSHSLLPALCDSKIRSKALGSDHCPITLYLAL

What follows are compounds tested against DNA repair nuclease/redox regulator APEX1 (Homo sapiens) (UniProt P27695) (assay: qHTS Assay for Inhibitors of the Human Apurinic/apyrimidinic Endonuclease 1 (APE1)). Details: recombinant APE1, TAMRA/BHQ-2 abasic DNA cleavage fluorescence; activity change, negative = inhibition: at 65.8 µM (top of the series).
How it was run: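 Endonuclease cleavage of a quenched abasic-site DNA duplex (50 nM) by APE1 (0.75 nM) was tracked by TAMRA dequenching. Compounds were preincubated with enzyme 15 min at room temperature; data normalized to buffer-only and DMSO wells plus NSC13755 control.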
With `COC(=O)c1cc(-c2ccc3c(c2)OCO3)nc2ccccc12` the Potency was inconclusive: 39.8 µM [inhibitor, single point]. In the case of `O=C(/C=C/c1cccnc1)/C=C/c1cccnc1`, the Potency is reported as inconclusive: 7.94 µM [inhibitor, single point]. With `CC(C)n1c(SCC(=O)Nc2nncs2)nnc1-c1ccco1` the Potency was active: 13.4 µM. With `COc1cc(OC)c(C2CC(=O)N3CN(c4ccccc4C)CSC3=C2C#N)cc1OC` (stereo unspecified) the “activity change, negative = inhibition” value was inactive: -7.19%. For `CCCCOc1ccc(C(=O)N/N=C/c2cn[nH]c2-c2ccc(OC)c(OC)c2)cc1`, the Potency was inconclusive: 12.6 µM [inhibitor, partial curve, poor fit]. For `CC(=O)C1=C(C)NC(SCC(=O)c2ccc(-c3ccccc3)cc2)=C(C#N)C1c1cccnc1` (stereo unspecified), the Potency was inconclusive: 0.398 µM [inhibitor, full curve, poor fit]. `Cn1c2ccccc2c2nnc(SCC(=O)NCc3ccoc3)nc21` was tested, and the Potency was inconclusive: 35.5 µM [inhibitor, partial curve]. In the case of `O=C(CSc1nnc(-c2c[nH]c3ccccc23)o1)c1ccccc1`, the Potency is reported as inconclusive: 39.8 µM [inhibitor, single point]. With `NC(=O)COc1ccc(/C=C2\C(=O)ON=C2c2ccccc2)cc1` the “activity change, negative = inhibition” value was inactive: 5.4%. `COc1ccc(Nc2nn3c(=O)c4ccccc4nc3s2)cc1` was tested, and the Potency was inconclusive: 5.97 µM [inhibitor, full curve]. `O=C(NNC(=O)c1ccc(-c2ccccc2)cc1)Nc1ccc(F)cc1F` was tested, and the “activity change, negative = inhibition” value was inactive: 4.53%. With `Cc1cc2nc(-c3cccnc3SCC(=O)NCc3ccco3)[nH]c2cc1C` the Potency was inconclusive: 39.8 µM [inhibitor, single point]. For `CC(=O)c1ccc(OCCn2cnc3ccccc32)cc1`, the Potency was inconclusive: 0.0398 µM [inhibitor, full curve, poor fit]. For `O=C(CCCn1c(=O)[nH]c2ccccc2c1=O)Nc1ccc(F)cc1`, the Potency was inconclusive: 44.7 µM [inhibitor, single point]. In the case of `CCOc1ccc(C(=O)Nc2ccc(-c3cc4ccccc4oc3=O)c(C)c2)cc1[N+](=O)[O-]`, the Potency is reported as inconclusive: 14.1 µM [inhibitor, partial curve, poor fit]. In the case of `CCOc1ccc(S(=O)(=O)N2c3ccccc3CC2C)cc1` (stereo unspecified), the Potency is reported as inconclusive: 44.7 µM [inhibitor, single point]. For `Cc1cc(N)ccc1S(C)(=O)=O`, the “activity change, negative = inhibition” value was inactive: 3.91%. With `CCOc1ccc(OCCC(=O)NNC(=O)c2nn(C)c(=O)c3ccccc23)cc1` the Potency was inconclusive: 21.2 µM [inhibitor, partial curve]. For `COc1ccc(N(CC(=O)N2CCN(c3ccc(Cl)cc3)CC2)S(=O)(=O)c2c(C)n[nH]c2C)cc1`, the Potency was inconclusive: 44.7 µM [inhibitor, single point]. `O=C(COC(=O)CCC(=O)c1ccc(Cl)cc1)NCc1ccco1` was tested, and the Potency was inconclusive: 20 µM [inhibitor, partial curve]. With `CNC(=O)COC(=O)c1cc(-c2ccco2)nc2ccccc12` the Potency was inconclusive: 15.8 µM [inhibitor, partial curve]. `Cc1ccccc1C1CC(=O)Oc2cc(C)c(Cl)c(C)c21` (stereo unspecified) was tested, and the “activity change, negative = inhibition” value was inactive: -1.4%. In the case of `Cn1c(COc2ccc([N+](=O)[O-])cc2)nnc1SCC(N)=O`, the Potency is reported as inconclusive: 8.91 µM [inhibitor, single point]. In the case of `Cc1cc(=O)oc2cc(OCc3ccc(C(=O)OCC(=O)NC4CCS(=O)(=O)C4)cc3)ccc12` (stereo unspecified), the Potency is reported as inconclusive: 35.5 µM [inhibitor, single point]. `Cc1ccc(N2C(=O)SC(N(CC(=O)O)c3ccc(C)cc3)C2=O)cc1` (stereo unspecified) was tested, and the Potency was inconclusive: 6.31 µM [inhibitor, partial curve]. With `Cc1ccsc1C=Nc1ccc(O)cc1` the Potency was inconclusive: 44.7 µM [inhibitor, single point]. For `Nc1cc(OC(=O)c2cccs2)nn1S(=O)(=O)c1ccccc1`, the Potency was inconclusive: 0.251 µM [inhibitor, partial curve]. With `CC(=O)OCCn1c2nc(=O)[nH]c(=O)c-2nc2cc(C)c(C)cc21` the “activity change, negative = inhibition” value was inactive: 4.83%. In the case of `O=[N+]([O-])c1ccc2c(c1)S(=O)(=O)C=C2`, the Potency is reported as inconclusive: 15.8 µM [inhibitor, single point]. In the case of `O=C(Cc1cccs1)Nc1ccc(-c2nnn(CC(=O)N3CCOCC3)n2)cc1`, the Potency is reported as inconclusive: 39.8 µM [inhibitor, single point]. `Cc1nc2ncnn2c(N2CCN(C(=O)Cc3cccs3)CC2)c1C` was tested, and the Potency was inconclusive: 20 µM [inhibitor, partial curve, poor fit]. `Cc1ccc(OCCNC(=O)C(=O)NCc2ccco2)cc1` was tested, and the Potency was inconclusive: 4.47 µM [inhibitor, single point]. With `OCCSc1nc(-c2ccccc2)nc2ccc(F)cc12` the Potency was inconclusive: 17.8 µM [inhibitor, single point]. With `COc1ccc(NS(=O)(=O)c2cc(C)ccc2NC(=O)c2cc(C)oc2C)cc1` the Potency was inconclusive: 35.5 µM [inhibitor, partial curve]. In the case of `COc1cc(-c2nnc(COC(=O)c3ccc(C)o3)o2)cc(OC)c1OC`, the Potency is reported as active: 23.8 µM. `CC12C(=O)N(c3ccc(OC(=O)c4ccco4)cc3)C(=O)C1C1c3ccccc3C2c2ccccc21` (stereo unspecified) was tested, and the Potency was inconclusive: 3.16 µM [inhibitor, single point]. For `CCCc1nnc(NC(=O)C(C)N2C(=O)C3C4C=CC(C4)C3C2=O)s1` (stereo unspecified), the Potency was inconclusive: 0.0001 µM [inhibitor]. For `CCCCNc1nc(C)nc2c1nc(-c1ccccc1)n2CCN(C)C`, the Potency was inconclusive: 20 µM [inhibitor, partial curve]. With `COc1ccc(OC)c2c1sc(=NC(=O)C1CCCCC1)n2C` the Potency was inconclusive: 4.47 µM [inhibitor, full curve, poor fit]. `Cc1ccc2cc(/C=N/NC(=O)c3ccccc3O)c(Cl)nc2c1` was tested, and the “activity change, negative = inhibition” value was inactive: 0.381%. With `CCOc1cccc2sc(NN)nc12` the Potency was inconclusive: 15.8 µM [inhibitor, partial curve, poor fit]. For `CSc1nc(-c2ccccc2)cn1-c1ccc(NC(C)=O)cc1`, the Potency was inconclusive: 3.98 µM [inhibitor, full curve, poor fit]. With `COc1ccc(CNS(=O)(=O)c2ccc(F)c(C(=O)Nc3ccc(OC)cc3)c2)cc1` the Potency was inconclusive: 25.1 µM [inhibitor, single point]. `CCOC(=O)/C(C#N)=C/c1cc(C)n(-c2ccc(C)cc2)c1C` was tested, and the Potency was inconclusive: 2.24 µM [inhibitor, partial curve]. In the case of `O=C(CSc1nnc(CNC(=O)c2ccccc2F)o1)NCc1ccccc1`, the Potency is reported as inconclusive: 3.16 µM [inhibitor, partial curve]. `COc1cc(/C=C2/SC(=Nc3ccc(O)cc3)NC2=O)cc(OC)c1O` was tested, and the Potency was inconclusive: 39.8 µM [inhibitor, single point]. With `O=C(Cn1c2ccccc2c(=O)c2ccccc21)N/N=C/c1cc([N+](=O)[O-])ccc1N1CCCCCC1` the “activity change, negative = inhibition” value was inactive: -3.71%. `CCOC(=O)C1CCN(c2c(NCCN3CCN(c4ccccc4)CC3)c(=O)c2=O)CC1` was tested, and the “activity change, negative = inhibition” value was inactive: 0.327%. With `Cc1nc(SCC(=O)Nc2cc(C(N)=O)cc(C(N)=O)c2)c2c(C)c(C)sc2n1` the “activity change, negative = inhibition” value was inactive: 7%. `CCC(C)C(NC(=O)OC(C)(C)C)C(=O)NC1COC2CC(n3cc(C)c(=O)[nH]c3=O)OC12` (stereo unspecified) was tested, and the “activity change, negative = inhibition” value was inactive: 2.61%. With `CCOC(=O)Cc1c(C)nc2cc(-c3ccc(C(C)(C)C)cc3)[nH]n2c1=O` the Potency was inconclusive: 0.0063 µM [inhibitor, full curve, poor fit]. In the case of `CCC(=O)Nc1ccc(C(=O)Cn2ncc(Cl)c(Cl)c2=O)cc1`, the “activity change, negative = inhibition” value is reported as inactive: -4.05%. In the case of `Cc1ccccc1Nc1nnc(SCC(=O)NC(=O)NCc2ccco2)s1`, the Potency is reported as inconclusive: 39.8 µM [inhibitor, single point]. For `O=C1C2CC=CCC2C(=O)N1Nc1ccccc1` (stereo unspecified), the Potency was inconclusive: 44.7 µM [inhibitor, single point]. In the case of `CCC(C(=O)N1CCN(c2cccc(Cl)c2)CC1)c1ccccc1` (stereo unspecified), the “activity change, negative = inhibition” value is reported as inactive: 9.58%. With `COc1ccc(S(=O)(=O)Nc2c(C)nc3nc[nH]n3c2=O)cc1` the Potency was inconclusive: 0.708 µM [inhibitor, full curve, poor fit]. In the case of `CCN=c1scc(C)n1/N=C/c1ccc(O)c(O)c1O`, the Potency is reported as inconclusive: 8.91 µM [inhibitor, partial curve]. For `O=C(/C=C/c1ccccc1)N1CCCC1CO` (stereo unspecified), the Potency was inconclusive: 3.16 µM [inhibitor, single point]. For `CCOC(=O)c1ccc(N=c2sc(C(=O)OC)cc(=O)n2Cc2ccc3c(c2)OCO3)cc1`, the Potency was inconclusive: 0.0562 µM [inhibitor, full curve, poor fit]. With `N#Cc1c(/N=C/c2ccc(-c3ccc(C(=O)O)c(Cl)c3)o2)sc2c1CCCC2` the “activity change, negative = inhibition” value was inactive: -8.43%. `C/C(=N\NS(=O)(=O)c1ccc(Cl)c([N+](=O)[O-])c1)c1cc2ccccc2o1` was tested, and the Potency was inconclusive: 28.2 µM [inhibitor, single point]. In the case of `COc1cccc([C@@H]2Oc3ccc(Br)cc3C(=O)[C@H]2OC(=O)NCc2ccco2)c1`, the “activity change, negative = inhibition” value is reported as inactive: 6.17%. In the case of `CCOc1cccc(C=NNc2ccc(S(=O)(=O)Nc3ccccc3C(=O)O)cc2[N+](=O)[O-])c1O`, the “activity change, negative = inhibition” value is reported as inactive: -1.48%. In the case of `CC(=O)Nc1ccc(N(C(=O)Cn2nnc3ccccc32)C(C(=O)NC2CCCC2)c2ccc(O)c(O)c2)cc1` (stereo unspecified), the “activity change, negative = inhibition” value is reported as inactive: 1.81%. For `CCCCCCc1ccc(O)cc1O`, the Potency was inconclusive: 8.91 µM [inhibitor, partial curve]. For `C#CCOCCOCCOCCNc1nc(N2CCN(C(=O)CCCCCCCCCCNC(=O)Cn3cc(CCCCCN)nn3)CC2)nc(N2CCN(C(=O)CCCCCCCCCCNC(=O)[C@@H](CCSC)n3cc(CCO)nn3)CC2)n1`, the Potency was inconclusive: 37.7 µM [inhibitor, single point].
